Values of other authors in US20240122896A1, “LASOFOXIFENE COMBINATION TREATMENT OF ER+ BREAST CANCER THAT HAS PROGRESSED ON A CDK4/6 INHIBITOR” (Sermonix Pharmaceuticals, Inc., priority 2022, published 2024).
Read-outs that look alike come from different tables or passages of the source. At least one structure is not confirmed: it was looked up by name or label, or the drawing left a doubt.

Key:
breast cancer [1] = details: Monarch 1, CDK4/6i Naïve
breast cancer [2] = details: Abema trial, CDK4/6i Post

For `CCN1CCN(Cc2ccc(Nc3ncc(F)c(-c4cc(F)c5nc(C)n(C(C)C)c5c4)n3)nc2)CC1` [Abema], the “CBR (≥24 wks)” value (breast cancer [1]) is listed as 41%, the ORR (breast cancer [1]) is listed as 19.7% and the “PFS (mos)” value (breast cancer [1]; N=132) is listed as 6.0 mos. The “PFS (mos)” value (breast cancer [2]; Combo N=70) was 5.1 mos, the “PFS (mos)” value (breast cancer [2]; Mono N=17) was 5.4 mos and the “CBR (≥24 wks)” value (breast cancer [2]; Total N=87) was 36.8%. For the same compound, the “PFS (mos)” value (breast cancer [2]; Total N=87) was 5.3 mos.
